{"source": "paper PMC8618245", "about": "“Mechanisms of CP190 Interaction with Architectural Proteins in Drosophila Melanogaster” (International Journal of Molecular Sciences, 2021)", "molecules": {"B1": {"name": "Pita fused to the GAL4 activation domain (protein, UniProt Q95RQ8 1-683)", "chain": "MAAKLEVREAMLTEKRVCRFCLTEQKLASIFEENPRVKTTANLPLQIMAITAIEVYAGDGMPGHICLECRLLFEHCYRFKQMCKRAETLLRQYPLTGNWPSPLEKPRAPMTMVASKKLLVVPAKTAEPSETPKKLLNTMAKSSSQVIIEDVQVLESAMVTPRTVAGSSPVPRRSHAYELKVDNNQELSMDDVQSMLEDMASELEKEFPDIPQKASPVKPKVLNKSSIRILNKGPAAPVEPRLATPKVKRDDSGNVAIVTEVLDSDLPLDDQDDPTKNAEKVATDVFPCPDCERSFPLQQLLEIHRLNHTRSRSFQCLLCEKSFFSKYDLAKHNFVHTGERPFKCAICSKAFTRKALLHRHERTHTDVPKFICVYCEKPFLSRQEMEKHAERHQKKRPFQCGVCTKSFAFKQGLERHETVHSTNLPFPCQHCERSFSTASKLARHLVAHAGKRAYPCKYCHKSYMLSHHLSRHLRTHTQTSDASFVCSECKVSYSNYNDLLDHALIHATASLKCPMCRKQIEDIDSVESHMDQHKQSERHACEFCDHIFLTQKCLQRHIEDDHVVEMEPYQNEFEDDGEGEGGVDEKEEHLDDFEDMDNVKQEEFVTEYLEDDALYEDHLDDSDESFTPPPPKQRKTNPPKDAQQSVRQTRSRDAQRITQKTGKNEGKPHHKLERNLKNRRSAK"}, "B2": {"name": "6×His-Thioredoxin-fused CP190 1–126 (BTB domain) (domain or fragment, UniProt Q24478 1-126)", "chain": "MGEVKSVKVDNWGVFFLQKLQNFFNKTDYCDLTLQFRDNSQLKVHRLVLSACTDYFNVLEQTCEIVDDALIMPNEFQADVVVPIVNFMYTGTLEFELKMYGKLLRTAKEMNMTVLLKLLEAHRRTM"}, "B3": {"name": "dCTCF fused to the GAL4 activation domain (protein, UniProt Q9VS55 1-818)", "chain": "MPRRTKKDEDPEDLQTFLNNFHKEIEGNSDEKVVNTILEAISAEAIDLDENGAEAGGSKPMEEAEADLDHAEEAEEEEEDDEDKYFIDDEGNCYIKTTPKKQKELQKKLKQAAAKPGKATRSVVSTATNKSINLRPAKSTPKATTSKPPPEPKAISVRPARAAAAKAKQSAMPPPPALVVKVPAPRGRPRKNPVIPKPEPMDLERELEELVDEPDISSMVTELSDYTVDEAAVEAATATLTPNEAEVYEFEDNATTEDENADKKDVDFVLSNKEVKLKTASSTSQNSNASGHKYSCPHCPYTASKKFLITRHSRSHDVEPSFKCSICERSFRSNVGLQNHINTHMGNKPHKCKLCESAFTTSGELVRHTRYKHTKEKPHKCTECTYASVELTKLRRHMTCHTGERPYQCPHCTYASQDMFKLKRHMVIHTGEKKYQCDICKSRFTQSNSLKAHKLIHSVVDKPVFQCNYCPTTCGRKADLRVHIKHMHTSDVPMTCRRCGQQLPDRYQYKLHVKSHEGEKCYSCKLCSYASVTQRHLASHMLIHLDEKPFHCDQCPQAFRQRQLLRRHMNLVHNEEYQPPEPREKLHKCPSCPREFTHKGNLMRHMETHDDSANAREKRRRLKLGRNVRLQKDGTVITLIKDQYVDMDRDQEENEEDDNPESYDLAEIEPENSEAEDADDDVETIVSDPIRQRIKPAPIIINKQARLAASEKQPMIINQRLRSQRGTKTFHIKEEPDNSDFTVEWQGDDGEVMVVELVNGDEEVLVKHEPSANSKISAKNCFGFEDDDDYEEYGDGENEVDGASQEFLQLMDMIEQDS"}}, "key": {"[1]": {"target": "T1, CP190 M domain (309–470) fused to the GAL4 DNA-binding domain (Drosophila melanogaster) (UniProt Q24478)", "T1 sequence": "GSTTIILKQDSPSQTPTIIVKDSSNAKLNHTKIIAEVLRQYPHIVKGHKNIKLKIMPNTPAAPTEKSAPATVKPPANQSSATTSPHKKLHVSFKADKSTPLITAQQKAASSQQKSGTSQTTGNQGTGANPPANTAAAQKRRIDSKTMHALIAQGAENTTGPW", "test": "two-hybrid; C2H2 proteins or their fragments fused to the GAL4 activation domain (pGAD424), CP190 BTB, D or M domain or full-length CP190 fused to the GAL4 DNA-binding domain (pGBT9); yeast strain pJ69-4A; growth on media without tryptophan, leucine, histidine and adenine compared after 2–3 days, 30 °C; includes the screen of a library of 154 C2H2 proteins"}, "[2]": {"target": "T2, CP190 D domain fused to the GAL4 DNA-binding domain (Drosophila melanogaster) (UniProt Q24478)", "T2 sequence": "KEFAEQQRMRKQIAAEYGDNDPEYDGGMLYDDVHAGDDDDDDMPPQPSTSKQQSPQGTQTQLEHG", "test": "two-hybrid; C2H2 proteins or their fragments fused to the GAL4 activation domain (pGAD424), CP190 BTB, D or M domain or full-length CP190 fused to the GAL4 DNA-binding domain (pGBT9); yeast strain pJ69-4A; growth on media without tryptophan, leucine, histidine and adenine compared after 2–3 days, 30 °C; includes the screen of a library of 154 C2H2 proteins"}, "[3]": {"target": "CP190 BTB domain F15A fused to the GAL4 DNA-binding domain (Drosophila melanogaster)", "test": "two-hybrid; C2H2 proteins or their fragments fused to the GAL4 activation domain (pGAD424), CP190 BTB, D or M domain or full-length CP190 fused to the GAL4 DNA-binding domain (pGBT9); yeast strain pJ69-4A; growth on media without tryptophan, leucine, histidine and adenine compared after 2–3 days, 30 °C; includes the screen of a library of 154 C2H2 proteins"}, "[4]": {"target": "CP190 BTB domain K117S fused to the GAL4 DNA-binding domain (Drosophila melanogaster)", "test": "two-hybrid; C2H2 proteins or their fragments fused to the GAL4 activation domain (pGAD424), CP190 BTB, D or M domain or full-length CP190 fused to the GAL4 DNA-binding domain (pGBT9); yeast strain pJ69-4A; growth on media without tryptophan, leucine, histidine and adenine compared after 2–3 days, 30 °C; includes the screen of a library of 154 C2H2 proteins"}, "[5]": {"target": "CP190 BTB domain K19A fused to the GAL4 DNA-binding domain (Drosophila melanogaster)", "test": "two-hybrid; C2H2 proteins or their fragments fused to the GAL4 activation domain (pGAD424), CP190 BTB, D or M domain or full-length CP190 fused to the GAL4 DNA-binding domain (pGBT9); yeast strain pJ69-4A; growth on media without tryptophan, leucine, histidine and adenine compared after 2–3 days, 30 °C; includes the screen of a library of 154 C2H2 proteins"}, "[6]": {"target": "CP190 BTB domain L118A fused to the GAL4 DNA-binding domain (Drosophila melanogaster)", "test": "two-hybrid; C2H2 proteins or their fragments fused to the GAL4 activation domain (pGAD424), CP190 BTB, D or M domain or full-length CP190 fused to the GAL4 DNA-binding domain (pGBT9); yeast strain pJ69-4A; growth on media without tryptophan, leucine, histidine and adenine compared after 2–3 days, 30 °C; includes the screen of a library of 154 C2H2 proteins"}, "[7]": {"target": "CP190 BTB domain V114A fused to the GAL4 DNA-binding domain (Drosophila melanogaster)", "test": "two-hybrid; C2H2 proteins or their fragments fused to the GAL4 activation domain (pGAD424), CP190 BTB, D or M domain or full-length CP190 fused to the GAL4 DNA-binding domain (pGBT9); yeast strain pJ69-4A; growth on media without tryptophan, leucine, histidine and adenine compared after 2–3 days, 30 °C; includes the screen of a library of 154 C2H2 proteins"}, "[8]": {"target": "CP190 BTB domain V114N fused to the GAL4 DNA-binding domain (Drosophila melanogaster)", "test": "two-hybrid; C2H2 proteins or their fragments fused to the GAL4 activation domain (pGAD424), CP190 BTB, D or M domain or full-length CP190 fused to the GAL4 DNA-binding domain (pGBT9); yeast strain pJ69-4A; growth on media without tryptophan, leucine, histidine and adenine compared after 2–3 days, 30 °C; includes the screen of a library of 154 C2H2 proteins"}, "[9]": {"target": "CP190 BTB domain V7A fused to the GAL4 DNA-binding domain (Drosophila melanogaster)", "test": "two-hybrid; C2H2 proteins or their fragments fused to the GAL4 activation domain (pGAD424), CP190 BTB, D or M domain or full-length CP190 fused to the GAL4 DNA-binding domain (pGBT9); yeast strain pJ69-4A; growth on media without tryptophan, leucine, histidine and adenine compared after 2–3 days, 30 °C; includes the screen of a library of 154 C2H2 proteins"}, "[10]": {"target": "CP190 BTB domain fused to the GAL4 DNA-binding domain (Drosophila melanogaster)", "test": "two-hybrid; C2H2 proteins or their fragments fused to the GAL4 activation domain (pGAD424), CP190 BTB, D or M domain or full-length CP190 fused to the GAL4 DNA-binding domain (pGBT9); yeast strain pJ69-4A; growth on media without tryptophan, leucine, histidine and adenine compared after 2–3 days, 30 °C; includes the screen of a library of 154 C2H2 proteins"}, "[11]": {"target": "GST-fused CG31365 324–455 (Drosophila melanogaster)", "test": "pull-down; GST pull-down from lysate of BL21 cells co-expressing the GST-fused C2H2 fragment and 6×His-Thioredoxin-fused CP190 1–126; glutathione agarose, buffer C (20 mM Tris pH 7.5, 150 mM NaCl, 10 mM MgCl2, 0.1 mM ZnCl2, 0.1% NP40, 10% glycerol, 1 mM DTT), +4 °C, washes with 500 mM NaCl"}, "[12]": {"target": "GST-fused CG31365 368–455 (Drosophila melanogaster)", "test": "pull-down; GST pull-down from lysate of BL21 cells co-expressing the GST-fused C2H2 fragment and 6×His-Thioredoxin-fused CP190 1–126; glutathione agarose, buffer C (20 mM Tris pH 7.5, 150 mM NaCl, 10 mM MgCl2, 0.1 mM ZnCl2, 0.1% NP40, 10% glycerol, 1 mM DTT), +4 °C, washes with 500 mM NaCl"}, "[13]": {"target": "GST-fused CG4730 1–133 (Drosophila melanogaster)", "test": "pull-down; GST pull-down from lysate of BL21 cells co-expressing the GST-fused C2H2 fragment and 6×His-Thioredoxin-fused CP190 1–126; glutathione agarose, buffer C (20 mM Tris pH 7.5, 150 mM NaCl, 10 mM MgCl2, 0.1 mM ZnCl2, 0.1% NP40, 10% glycerol, 1 mM DTT), +4 °C, washes with 500 mM NaCl"}, "[14]": {"target": "GST-fused CG4730 ZAD domain (Drosophila melanogaster)", "test": "pull-down; GST pull-down from lysate of BL21 cells co-expressing the GST-fused C2H2 fragment and 6×His-Thioredoxin-fused CP190 1–126; glutathione agarose, buffer C (20 mM Tris pH 7.5, 150 mM NaCl, 10 mM MgCl2, 0.1 mM ZnCl2, 0.1% NP40, 10% glycerol, 1 mM DTT), +4 °C, washes with 500 mM NaCl"}}, "note": "These are yes or no findings as the source states them, for the method shown. Binding calls can cover weak binding; strength is not graded here. Sequences can lack the tags named with a protein. For part of these data: Binding seen in cells or lysates may run through a third protein."}
{"molecule": "CG31365 1–455 fused to the GAL4 activation domain (Drosophila melanogaster) (domain or fragment)", "values": [{"measurement": "binding", "setting": "[1]", "result": "binds"}]}
{"molecule": "CG31365 full-length fused to the GAL4 activation domain (Drosophila melanogaster)", "values": [{"measurement": "binding", "setting": "[2]", "result": "no binding"}, {"measurement": "binding", "setting": "[1]", "result": "binds"}]}
{"molecule": "CG4730 full-length fused to the GAL4 activation domain (Drosophila melanogaster)", "values": [{"measurement": "binding", "setting": "[2]", "result": "binds"}, {"measurement": "binding", "setting": "[1]", "result": "binds"}]}
{"molecule": "B1", "values": [{"measurement": "binding", "setting": "[3]", "result": "binds"}, {"measurement": "binding", "setting": "[4]", "result": "binds"}, {"measurement": "binding", "setting": "[5]", "result": "binds"}, {"measurement": "binding", "setting": "[6]", "result": "binds"}, {"measurement": "binding", "setting": "[7]", "result": "binds"}, {"measurement": "binding", "setting": "[8]", "result": "binds"}, {"measurement": "binding", "setting": "[9]", "result": "binds"}, {"measurement": "binding", "setting": "[10]", "result": "binds"}]}
{"molecule": "B2", "values": [{"measurement": "binding", "setting": "[11]", "result": "binds"}, {"measurement": "binding", "setting": "[12]", "result": "binds"}, {"measurement": "binding", "setting": "[13]", "result": "binds"}, {"measurement": "binding", "setting": "[14]", "result": "binds weakly"}]}
{"molecule": "B3", "values": [{"measurement": "binding", "setting": "[3]", "result": "no binding"}, {"measurement": "binding", "setting": "[4]", "result": "no binding"}, {"measurement": "binding", "setting": "[5]", "result": "binds"}, {"measurement": "binding", "setting": "[6]", "result": "no binding"}, {"measurement": "binding", "setting": "[7]", "result": "no binding"}, {"measurement": "binding", "setting": "[8]", "result": "no binding"}, {"measurement": "binding", "setting": "[9]", "result": "no binding"}, {"measurement": "binding", "setting": "[10]", "result": "binds"}]}
{"molecule": "VTVVTEEDDTIDFILADDEEVVPGRIENNNGQEIVVTE (domain or fragment, UniProt P08970 150-187)", "note": "[Su(Hw) 150–187 fused to the GAL4 activation domain]", "values": [{"measurement": "binding", "setting": "[3]", "result": "no binding"}, {"measurement": "binding", "setting": "[4]", "result": "no binding"}, {"measurement": "binding", "setting": "[5]", "result": "no binding"}, {"measurement": "binding", "setting": "[6]", "result": "no binding"}, {"measurement": "binding", "setting": "[7]", "result": "no binding"}, {"measurement": "binding", "setting": "[8]", "result": "no binding"}, {"measurement": "binding", "setting": "[9]", "result": "no binding"}, {"measurement": "binding", "setting": "[10]", "result": "binds"}]}
